From publication PMC10748205
Results are given in words; binding and its absence hold for the method and conditions named. Some binding calls cover weakened binding; strength is not graded here.

Amino acid sequences for entries named in this document (tags omitted). Residues count along the entry.
UniProt P33426, residues 20-660: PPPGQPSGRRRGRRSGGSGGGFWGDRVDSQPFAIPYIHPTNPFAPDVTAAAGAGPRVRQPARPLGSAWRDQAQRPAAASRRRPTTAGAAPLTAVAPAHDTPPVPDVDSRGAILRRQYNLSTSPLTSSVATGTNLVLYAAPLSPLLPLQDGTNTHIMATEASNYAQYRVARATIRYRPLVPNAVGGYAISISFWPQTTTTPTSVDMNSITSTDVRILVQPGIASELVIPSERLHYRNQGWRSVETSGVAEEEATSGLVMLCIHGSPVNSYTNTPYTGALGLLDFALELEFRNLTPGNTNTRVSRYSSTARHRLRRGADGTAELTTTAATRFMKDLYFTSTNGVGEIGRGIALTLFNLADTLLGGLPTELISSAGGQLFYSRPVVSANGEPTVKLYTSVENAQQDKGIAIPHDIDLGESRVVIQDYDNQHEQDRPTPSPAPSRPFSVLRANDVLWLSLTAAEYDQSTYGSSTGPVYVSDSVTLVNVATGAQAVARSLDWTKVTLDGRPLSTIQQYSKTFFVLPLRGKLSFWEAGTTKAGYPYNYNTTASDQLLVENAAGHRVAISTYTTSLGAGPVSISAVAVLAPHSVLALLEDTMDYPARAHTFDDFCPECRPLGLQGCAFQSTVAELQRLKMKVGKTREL
UniProt O43570, residues 25-354: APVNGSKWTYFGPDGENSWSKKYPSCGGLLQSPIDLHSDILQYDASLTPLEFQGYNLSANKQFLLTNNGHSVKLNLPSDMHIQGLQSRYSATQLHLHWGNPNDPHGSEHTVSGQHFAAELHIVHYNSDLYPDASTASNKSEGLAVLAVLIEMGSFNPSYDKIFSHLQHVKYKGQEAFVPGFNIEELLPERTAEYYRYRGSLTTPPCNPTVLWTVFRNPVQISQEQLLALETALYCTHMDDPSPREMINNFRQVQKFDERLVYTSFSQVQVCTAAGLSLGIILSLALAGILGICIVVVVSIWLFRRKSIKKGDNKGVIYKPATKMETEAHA

Target: Gt-1 ORF2 MAPPIT (hepatitis E virus genotype 1 (Sar-55)) (UniProt P33426)
Assay: two-hybrid

Row | Molecule | binding
1 | CA12 (from UniProt O43570 25-354) | binds
2 | ADCY3 (protein, UniProt O60266 1-1144) MPRNQGFSEPEYSAEYSAEYSVSLPSDPDRGVGRTHEISVRNSGSCLCLPRFMRLTFVPESLENLYQTYFKRQRHETLLVLVVFAALFDCYVVVMCAVVFSSDKLASLAVAGIGLVLDIILFVLCKKGLLPDRVTRRVLPYVLWLLITAQIFSYLGLNFARAHAASDTVGWQVFFVFSFFITLPLSLSPIVIISVVSCVVHTLVLGVTVAQQQQEELKGMQLLREILANVFLYLCAIAVGIMSYYMADRKHRKAFLEARQSLEVKMNLEEQSQQQENLMLSILPKHVADEMLKDMKKDESQKDQQQFNTMYMYRHENVSILFADIVGFTQLSSACSAQELVKLLNELFARFDKLAAKYHQLRIKILGDCYYCICGLPDYREDHAVCSILMGLAMVEAISYVREKTKTGVDMRVGVHTGTVLGGVLGQKRWQYDVWSTDVTVANKMEAGGIPGRVHISQSTMDCLKGEFDVEPGDGGSRCDYLEEKGIETYLIIASKPEVKKTATQNGLNGSALPNGAPASSKSSSPALIETKEPNGSAHSSGSTSEKPEEQDAQADNPSFPNPRRRLRLQDLADRVVDASEDEHELNQLLNEALLERESAQVVKKRNTFLLSMRFMDPEMETRYSVEKEKQSGAAFSCSCVVLLCTALVEILIDPWLMTNYVTFMVGEILLLILTICSLAAIFPRAFPKKLVAFSTWIDRTRWARNTWAMLAIFILVMANVVDMLSCLQYYTGPSNATAGMETEGSCLENPKYYNYVAVLSLIATIMLVQVSHMVKLTLMLLVAGAVATINLYAWRPVFDEYDHKRFREHDLPMVALEQMQGFNPGLNGTDRLPLVPSKYSMTVMVFLMMLSFYYFSRHVEKLARTLFLWKIEVHDQKERVYEMRRWNEALVTNMLPEHVARHFLGSKKRDEELYSQTYDEIGVMFASLPNFADFYTEESINNGGIECLRFLNEIISDFDSLLDNPKFRVITKIKTIGSTYMAASGVTPDVNTNGFASSNKEDKSERERWQHLADLADFALAMKDTLTNINNQSFNNFMLRIGMNKGGVLAGVIGARKPHYDIWGNTVNVASRMESTGVMGNIQVVEETQVILREYGFRFVRRGPIFVKGKGELLTFFLKGRDKLATFPNGPSVTLPHQVVDNS | binds
